# Values from PubChem BioAssay AID686938 (Drosophila RNAi Screening Center, 2013)
# Purpose: 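Looking for CRAC channel components and the factors controlling them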 (primary screen)
# Cells: Drosophila S2R+ cells
# Reagent: long dsRNA against Drosophila genes, about 0.25 µg dsRNA per well, roughly 10,000 cells
# Timing: 5 days of knock-down before the calcium assay
# Treatment: thapsigargin (SERCA pump blocker) to empty calcium stores; entry signal taken 4 min after adding it
# Measured: 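Per-well fluo-4 fluorescence in two replicates, unnormalised, measured in resting cells and 4 min after store depletion by the SERCA blocker thapsigargin; ratio of the two present in few wells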
# Reading the numbers: calcium entry signal: higher = stronger calcium signal after store depletion; resting calcium signal: higher = higher resting calcium signal
# Call rule: 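Hit if the duplicate-averaged plate z-score for entry over resting signal is under −3; wells with weak total dye signal (Fmax z < −2) or more than 5 off-targets removed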
# Calls: active = strongly reduced calcium entry; inactive = no strong reduction
# The screen tested about 23,000 reagents; shown is a random part of those that have a named target and a result. In the full data, 75 (0.33%) are marked active. 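Raw plate signals without normalisation; calls rest on plate z-scores that were not deposited; ratio present for only 364 wells.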 The numbers tell different reagents against one gene apart. No sequences are given here. The record does not give: the dose of the treatment.
The opening 3 records, ahead of the listing:
Target gene,reagent no.,"calcium entry signal, replicate 1 (fluorescence units)","calcium entry signal, replicate 2 (fluorescence units)","resting calcium signal, replicate 1 (fluorescence units)","resting calcium signal, replicate 2 (fluorescence units)",call
CG9254,1,3.38e7,2.53e7,1.59e7,1.23e7,inactive
pain (painless),1,4.03e7,4.89e7,2.16e7,2.22e7,inactive
CtsF (Cathepsin F),1,2.04e7,2.66e7,1.05e7,1.25e7,inactive

The listing, from the first entry:
Target gene,reagent no.,"calcium entry signal, replicate 1 (fluorescence units)","calcium entry signal, replicate 2 (fluorescence units)","resting calcium signal, replicate 1 (fluorescence units)","resting calcium signal, replicate 2 (fluorescence units)",call
CG9254,1,3.38e7,2.53e7,1.59e7,1.23e7,inactive
pain (painless),1,4.03e7,4.89e7,2.16e7,2.22e7,inactive
CtsF (Cathepsin F),1,2.04e7,2.66e7,1.05e7,1.25e7,inactive
CtsF (Cathepsin F),2,2.10e7,2.74e7,1.03e7,1.21e7,inactive
CtsF (Cathepsin F),3,3.80e7,1.88e7,1.82e7,9.90e6,inactive
CG15611,1,2.33e7,2.40e7,1.03e7,1.16e7,inactive
CG15611,2,4.93e7,4.52e7,2.16e7,2.20e7,inactive
CG15404,1,2.57e7,2.33e7,1.26e7,1.08e7,inactive
Ugt301D1 (UDP-glycosyltransferase family 301 member D1),1,5.56e7,3.51e7,2.23e7,1.69e7,inactive
CG8046,1,2.43e7,1.84e7,1.05e7,9.35e6,inactive
lqf (liquid facets),1,4.85e7,3.99e7,3.29e7,1.71e7,inactive
CG13707,1,2.93e7,3.96e7,1.45e7,1.69e7,inactive
Rnf11 (Ring finger protein 11),1,3.64e7,3.33e7,2.26e7,1.57e7,inactive
NFAT (NFAT nuclear factor),1,1.36e7,1.61e7,8.22e6,8.13e6,inactive
NFAT (NFAT nuclear factor),2,4.53e7,4.81e7,2.22e7,2.20e7,inactive
Cyp318a1 (Cytochrome P450 318a1),1,4.39e7,6.14e7,2.04e7,2.92e7,inactive
CG1971,1,3.00e7,3.91e7,1.39e7,1.96e7,inactive
CG13197,1,3.17e7,4.58e7,1.65e7,2.18e7,inactive
CG5653,1,3.72e7,5.10e7,1.69e7,2.28e7,inactive
CG6420,1,2.76e7,3.31e7,1.40e7,1.45e7,inactive
caps (capricious),1,3.52e7,4.61e7,1.75e7,2.06e7,inactive
caps (capricious),2,3.87e7,5.68e7,1.89e7,3.01e7,inactive
ouib (ouija board),1,4.89e7,3.06e7,2.50e7,1.56e7,inactive
dally (division abnormally delayed),1,4.01e7,4.33e7,2.24e7,1.94e7,inactive
dally (division abnormally delayed),2,4.35e7,3.21e7,2.74e7,1.37e7,inactive
